No constants are given. Whether binding was seen depends on the method and setting. Some results given as binding are weak or reduced against the parent protein; the word gives no strength. Where a sequence is shown, tags or fusion partners need not be part of it.
Target: Aspartic Protease 1 (OsAsp1), yeast two-hybrid fusion (rice (Oryza sativa)) (UniProt Q0IU52)
Assay: two-hybrid; pGAD7 prey and pGBK7 bait constructs co-transformed into yeast AH109; growth on SD-Leu-Trp-His, SD-Leu-Trp as control; also with IAA, which inhibited the OsAsp1-OsTIF1 interaction

B1: Aspartic Protease 1 (OsAsp1), yeast two-hybrid fusion (protein, UniProt Q0IU52 1-410)
chain: MTARLALLASLLLLLQLVPPSSAVVLELHGNVYPIGHFFITMNIGDPAKSYFLDIDTGSTLTWLQCDAPCTNCNIVPHVLYKPTPKKLVTCADSLCTDLYTDLGKPKRCGSQKQCDYVIQYVDSSSMGVLVIDRFSLSASNGTNPTTIAFGCGYDQGKKNRNVPIPVDSILGLSRGKVTLLSQLKSQGVITKHVLGHCISSKGGGFLFFGDAQVPTSGVTWTPMNREHKYYSPGHGTLHFDSNSKAISAAPMAVIFDSGATYTYFAAQPYQATLSVVKSTLNSECKFLTEVTEKDRALTVCWKGKDKIVTIDEVKKCFRSLSLEFADGDKKATLEIPPEHYLIISQEGHVCLGILDGSKEHLSLAGTNLIGGITMLDQMVIYDSERSLLGWVNYQCDRIPRSESAITSRL
binding: binds

Source: publication PMC7647119
